Results on 19 molecules are retold here after publication PMC10163288.

B1: il2ra_site2_3nfp_normal_mot_HHH_b1_05628_af2_000000064_0001_19_35_H_._HHH_b1_08457_0001_0000200016_0000001_0 (protein)
chain: SSSSDAEERVKELEKELREAEEEGDEELLEKLAFELFALASDLQDRRLASLAARLLFELRSSSSS
B2: il2ra_site1_1z92_sap_20_mot_HHH_b1_04647_af2_000000143_0001_21_38_H_._HHH_b1_02373_0001_0000300016_0000001_0_0001 (protein)
chain: SSSSDRSLEWAEELLRLALRLGSEKNIRFLTQFLKILAKAKNDPEAEELVEEAEKVLEELSSSSS
B3: il2ra_site1_2b5i_normal_mot_HHH_b2_04910_000000118_0001_1_19_H_._HHH_b1_06419_0001_0000500029_0000001_0 (protein)
chain: SSSSTEETREIIELFKEADRLDREGNEEEARKLLERALELAEEFGNKSLLRMVEFALRQLSSSSS
B4: il2ra_site1_2b5i_normal_mot_f5ff40796168375b462bec8614a1db4a_0001_1_000000138_0001_53_65_H_._HHH_b1_08036_0001_0000100001_0000001_0 (protein)
chain: SSSSDSFEQSAEDLLEEARRLIENGNPHEARSILHLARASARRAGNPELVEEIERLLEEASSSSS
B5: il2ra_site2_3nfp_sap_18_mot_HHH_b2_05281_000000198_0001_39_56_H_._25e4e8523bb898988f824d7176892a6f_0001_0001_0000300020_0000001_0_0001 (protein)
chain: SSSSSDERHEEMVELAIEAAKAAGDEEVLEELRELLERAREEGDYRLLLEAYALAARLYKNSSSS
B6: il2ra_site2_3nfp_normal_mot_HHH_b1_00660_af2_000000090_0001_40_57_H_._HHH_b1_02249_0001_0000400045_0000001_0_af2pred_0001_af2pred_swapped (protein)
chain: SSSSDEEEVRELLERAEELRKEGNPEEAEELLKRAALIAIEANDHELFALIVEVLERVLQSSSSS
B7: il2ra_site1_3nfp_sap_12_mot_HHH_b1_00630_af2_000000193_0001_42_55_H_._HHH_b2_07301_0001_0000900037_0000001_0_0001_af2pred_0001_af2pred_1 (protein)
chain: SSSSSREEVERLVEEAEEAAREGDAKLASELSRRIFELAKETGDPEIVKLLRELLEKAIRLSSSS
B8: il2ra_site2_3nfp_normal_mot_HHH_b1_04032_000000208_0001_43_56_H_._ems_3hM_3301_af2_0001_0000200004_0000001_0 (protein)
chain: SDEEQAELVLELIEAHALVHNDDEVRELVEELKELLEEAEKKNDEELVERIAELANELAHRVVNS
B9: il2ra_site2_2erj_sap_32_mot_HHH_b1_02841_000000003_0001_43_57_H_._HHH_b1_02948_0001_0000100003_0000001_0_0001 (protein)
chain: SSSSDESEEILEEAKELLEEAREKGDLHLLFRIASEAAERLARLGDHEALDRLNEFFMRLQSSSS
B10: il2ra_site1_2b5i_normal_mot_22370d59370c406a0c205a431f537cfa_0001_af2_000000141_0001_1_31_H_._HHH_b2_03163_af2_0001_0000300027_0000001_0 (protein)
chain: SSSDRELTHFAVRVVWELAVRLGLSFEQRRELNQLAAELVDEGFSEEEIEEILREEAEKLKSSSS
B11: il2ra_site2_2erj_sap_25_mot_64bd02d26d05ce9f1a62b616cea0b888_0001_af2_000000029_0001_36_49_H_._HHH_b2_07515_0001_0000800026_0000001_0_0001 (protein)
chain: SSSDVEERILRLLWEALRALVNGNPEEAKELVKEAKELAEELGNEELRRWIEAFEETIKSVSSSS
B12: il2ra_site1_2b5i_normal_mot_HHH_b2_01822_000000237_0001_40_54_H_._HHH_b2_01564_0001_0000800029_0000001_0_af2pred_dldesign_0_af2pred (protein)
chain: SSSSCPATRRVTELLEEANKLEDEEKREELLKEARRIAEENKCPQALRLVEWFEKEWKAESSSSS
B13: il2ra_site2_2erj_normal_mot_HHH_b1_01239_000000175_0001_43_57_H_._HHH_b2_02641_0001_0000400036_0000001_0_af2pred_0001_af2pred (protein)
chain: SSSSSSSETEEEVRRLLEEAEQVSDIQEAYELLEEASRLALELEDEEAFQLVDEVAKRLSSSSSS
B14: il2ra_site2_3nfp_normal_mot_HHH_b1_00239_000000199_0001_23_39_H_._HHH_b1_06021_0001_0000100008_0000001_0 (protein)
chain: SSSTEEEIEELLRQVEELLKEGDTYEAAELLARASELVARLGDEELARLVLRLYEILRRLYSSSS
B15: il2ra_site1_1z92_sap_15_mot_4eadacea29f80ea3a0abedbb5e3c3690_0001_af2_000000154_0001_35_49_H_._HEEHE_2194_0001_0000300049_0000001_0_0001 (protein)
chain: SSSSSDLEKQIEFLLRQIERALERNSEKLVRRLLEMVKRAAEEANDEELLEEVEELKERISSSSS
B16: il2ra_site2_2erj_normal_mot_HHH_b1_02757_000000121_0001_41_57_H_._HHH_b1_07526_0001_0000300010_0000001_0 (protein)
chain: SSSSDRKAFETLEELDRLLQEGDDEEFERLVEEFQRELEERGDEVTLESFREMVELAREVLSSSS
B17: il2ra_site1_3nfp_sap_8_mot_HHH_b2_00386_af2_000000253_0001_43_53_H_._HHH_b2_02858_0001_0000100001_0000001_0_0001_af2pred_dldesign_0_af2pred (protein)
chain: SSSSSSNIKELLEKANELAKAGDLEEAKKVLEEALELAKKLGLNKTVKFIERCLKLLESSSSSSS
B18: il2ra_site1_1z92_normal_mot_30aa582283ecb64a35315be28fff3e94_0001_000000110_0001_35_49_H_._HHH_b1_05084_0001_0000100006_0000001_0 (protein)
chain: SSSSTLERTAKRLVEDFIKLAGLSEEQQELLRKLAEELVEEGFSPQEIARILEEVAIKLEESSSS
B19: il2ra_site2_2erj_normal_mot_HHH_b1_01555_af2_000000123_0001_22_39_H_._HHH_b1_04602_af2_0001_0000100002_0000001_0 (protein)
chain: SSSSDEEEREELKQIVEEIVEEFGLSERDRRDLEESARIALELGTSVELIERFLRLVAEDLSSSS

The other results are listed elsewhere or left out.

The experiment deals with il2ra, P01589. Description: yeast display titration.
For the molecule B1, the “apparent Kd” value is “inactive: no binding seen”.
For the molecule B2, the “apparent Kd” value was “inactive: no binding seen”.
B3: the “apparent Kd” value is “inactive: no binding seen”.
As for B4, the entry is “inactive: no binding seen”.
The same measure for B5: “inactive: no binding seen”; for B6: “inactive: no binding seen”; for B7: “inactive: no binding seen”.
Take B8: the “apparent Kd” value is “inactive: no binding seen”.
The same measure for B9: “inactive: no binding seen”; for B10: “inactive: no binding seen”.
As for B11, the figure is inactive: > 690 nM; as for B12, “inactive: no binding seen”.
In the case of B13, the “apparent Kd” value was “inactive: no binding seen”.
The same measure for B14: “inactive: no binding seen”; for B15: “inactive: no binding seen”; for B16: “inactive: no binding seen”.
As for B17, the entry is “inactive: no binding seen”; as for B18, “inactive: no binding seen”.
As for B19, the entry is “inactive: no binding seen”.

Broadly, the apparent Kd is a dissociation constant that holds for the conditions of the assay.
